Here are results for two substances from patent US4399066 (dated 1983).

The nature of this series: general procedure: solution-phase peptide synthesis; OSu active ester.

In the case of “D-Lac(OAc)-L-Ala-γ-D-Glu(α-OBzl)-(L)-mesoDAP-(L)-L-Ser”, the step yield (late stage modification step) amounted to 71.4%.

Where the note is “coupling step”, “D-Lac(OAc)-L-Ala-γ-D-Glu(α-OBzl)-(L)-Boc-(D)-mesoDAP-(L)-L-Ser-(D)-NHNHBoc” showed a step yield of 47.4%.
